{
  "source": "PubChem BioAssay AID248",
  "about": "(DTP/NCI, 2004)",
  "test_system": "L1210 leukemia ip in BDF1 mice, survival T/C",
  "assay": "NCI In Vivo Anticancer Drug Screen. Data for tumor model L1210 Leukemia (intraperitoneal) in B6D2F1 (BDF1) mice",
  "details": "T/C endpoint: mean survival time, higher T/C = longer survival",
  "note": "The list is a part of this screen's results and no random one: it is rich in T/C values a quarter to a half above the control, in often repeated tests (any T/C) and in doses without a T/C. Other doses and runs of a compound stand elsewhere. T/C gives the treated animals as a percentage of the vehicle group. Some doses have a count of surviving animals in place of a T/C: the source files T/C as zero there, which appears to mark a toxic dose or a test without result, not a measured value. Survivors were counted at the toxicity check, usually on the fifth day, unless a day is given; later deaths do not show. Schedules are NCI's codes, read here as Q, the interval in days (D) or hours (H), X, the number of doses.",
  "data": [
    {"smiles": "CC(Br)(c1ccccc1)[P+](c1ccccc1)(c1ccccc1)c1ccccc1", "note": "(stereo not given)", "values": [
      {"measurement": "survivor count", "setting": "dose: 60.0 mg/kg/injection, schedule: Q01DX001 (ip), vehicle: carboxymethylcellulose (CMC)", "value": "1 of 6"},
      {"measurement": "survivor count", "setting": "dose: 75.0 mg/kg/injection, schedule: Q01DX001 (ip), vehicle: carboxymethylcellulose (CMC)", "value": "0 of 6"},
      {"measurement": "survivor count", "setting": "dose: 150.0 mg/kg/injection, schedule: Q01DX001 (ip), vehicle: carboxymethylcellulose (CMC)", "value": "0 of 6"},
      {"measurement": "survivor count", "setting": "dose: 300.0 mg/kg/injection, schedule: Q01DX001 (ip), vehicle: carboxymethylcellulose (CMC)", "value": "0 of 6"}
    ]},
    {"smiles": "O=[N+]([O-])c1ccccc1C(=Nc1ccccc1)c1c(O)cc(O)cc1O", "values": [
      {"measurement": "survivor count", "setting": "dose: 400.0 mg/kg/injection, schedule: Q01DX009 (ip), vehicle: acetone", "value": "0 of 6"}
    ]}
  ]
}
